Measured values: PMC3854969

By UniProt entry, the sequences of proteins in these tests, tags left out. Where a name states a change or a piece, a line headed by the entry shows the natural chain unless it says otherwise.
UniProt Q3SXY8: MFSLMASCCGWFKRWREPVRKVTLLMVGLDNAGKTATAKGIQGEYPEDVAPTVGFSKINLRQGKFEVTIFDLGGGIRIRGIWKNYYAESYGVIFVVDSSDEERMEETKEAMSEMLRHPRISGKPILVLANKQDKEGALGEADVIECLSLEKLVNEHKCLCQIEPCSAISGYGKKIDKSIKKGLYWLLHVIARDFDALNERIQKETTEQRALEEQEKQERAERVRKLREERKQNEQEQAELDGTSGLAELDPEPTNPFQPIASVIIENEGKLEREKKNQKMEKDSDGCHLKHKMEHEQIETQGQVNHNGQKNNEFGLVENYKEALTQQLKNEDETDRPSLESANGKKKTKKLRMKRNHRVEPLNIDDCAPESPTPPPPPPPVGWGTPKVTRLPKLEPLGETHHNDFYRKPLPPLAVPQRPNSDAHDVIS
UniProt A0AVF1: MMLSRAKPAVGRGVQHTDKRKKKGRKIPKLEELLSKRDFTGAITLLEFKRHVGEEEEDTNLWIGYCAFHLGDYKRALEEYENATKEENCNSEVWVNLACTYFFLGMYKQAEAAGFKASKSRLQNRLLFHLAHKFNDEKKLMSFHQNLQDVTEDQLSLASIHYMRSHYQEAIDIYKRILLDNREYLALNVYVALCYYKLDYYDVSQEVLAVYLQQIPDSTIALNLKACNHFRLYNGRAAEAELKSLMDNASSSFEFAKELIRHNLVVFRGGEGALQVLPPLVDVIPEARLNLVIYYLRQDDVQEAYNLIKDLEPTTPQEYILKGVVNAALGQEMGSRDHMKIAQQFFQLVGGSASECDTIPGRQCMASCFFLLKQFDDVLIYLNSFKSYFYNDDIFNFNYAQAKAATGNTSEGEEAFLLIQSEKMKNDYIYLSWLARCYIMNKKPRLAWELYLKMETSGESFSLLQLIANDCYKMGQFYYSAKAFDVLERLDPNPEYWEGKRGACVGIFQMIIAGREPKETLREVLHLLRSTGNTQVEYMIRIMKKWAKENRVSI

Legend:
[1] = molecular target: N-terminally SF (Strep-Flag)-tagged human ARL13B (wild type) (human) (UniProt Q3SXY8); assay: affinity purification with mass spectrometry; SILAC with one-step Strep-Tactin purification from HEK293T lysates; SF-tagged ARL13B against SF-TAP alone or mutated SF-tagged ARL13B; eluates combined; quantitative MS, at least 2-fold enrichment
[2] = molecular target: SF-ARL13B(T35N), predicted GDP-locked human ARL13B (human) (UniProt Q3SXY8); assay: affinity purification with mass spectrometry; SF-TAP: two steps (Strep-Tactin Superflow, then anti-Flag M2 agarose, Flag peptide elution) from lysates of HEK293T cells transiently expressing SF-tagged ARL13B; lysis in TBS with 0.5% Nonidet-P40, 4°C; compared with SF tag alone; LC-MS/MS
[3] = molecular target: C-terminally SF (Strep-Flag)-tagged human ARL13B (wild type) (human) (UniProt Q3SXY8); assay: as above
[4] = molecular target: N-terminally SF (Strep-Flag)-tagged human ARL13B (wild type) (human) (UniProt Q3SXY8); assay: as above

Measured: binding

tetratricopeptide repeat domain 26 (from UniProt A0AVF1 1-554)
binds: all assays above

B1: intraflagellar transport 74 (protein, UniProt Q96LB3 1-600)
chain: MASNHKSSAARPVSRGGVGLTGRPPSGIRPLSGNIRVATAMPPGTARPGSRGCPIGTGGVLSSQIKVAHRPVTQQGLTGMKTGTKGPQRQILDKSYYLGLLRSKISELTTEVNKLQKGIEMYNQENSVYLSYEKRAETLAVEIKELQGQLADYNMLVDKLNTNTEMEEVMNDYNMLKAQNDRETQSLDVIFTERQAKEKQIRSVEEEIEQEKQATDDIIKNMSFENQVKYLEMKTTNEKLLQELDTLQQQLDSQNMKKESLEAEIAHSQVKQEAVLLHEKLYELESHRDQMIAEDKSIGSPMEEREKLLKQIKDDNQEIASMERQLTDTKEKINQFIEEIRQLDMDLEEHQGEMNQKYKELKKREEHMDTFIETFEETKNQELKRKAQIEANIVALLEHCSRNINRIEQISSITNQELKMMQDDLNFKSTEVQKSQSTAQNLTSDIQRLQLDLQKMELLESKMTEEQHSLKSKIKQMTTDLEIYNDLPALKSSGEEKIKKLHQERMILSTHRNAFKKIMEKQNIEYEALKTQLQENETHSQLTNLERKWQHLEQNNFAMKEFIATKSQESDYQPIKKNVTKQIAEYNKTIVDALHSTSGN
binds: all assays above

B2: intraflagellar transport 27 (protein, UniProt Q9BW83 1-186)
chain: MVKLAAKCILAGDPAVGKTALAQIFRSDGAHFQKSYTLTTGMDLVVKTVPVPDTGDSVELFIFDSAGKELFSEMLDKLWESPNVLCLVYDVTNEESFNNCSKWLEKARSQAPGISLPGVLVGNKTDLAGRRAVDSAEARAWALGQGLECFETSVKEMENFEAPFHCLAKQFHQLYREKVEVFRALA
binds: all assays above

B3: tetratricopeptide repeat domain 30A (protein, UniProt Q86WT1 1-665)
chain: MAGLSGAQIPDGEFTALVYRLIRDARYAEAVQLLGRELQRSPRSRAGLSLLGYCYYRLQEFALAAECYEQLGQLHPELEQYRLYQAQALYKACLYPEATRVAFLLLDNPAYHSRVLRLQAAIKYSEGDLPGSRSLVEQLLSGEGGEESGGDNETDGQVNLGCLLYKEGQYEAACSKFSATLQASGYQPDLSYNLALAYYSSRQYASALKHIAEIIERGIRQHPELGVGMTTEGFDVRSVGNTLVLHQTALVEAFNLKAAIEYQLRNYEVAQETLTDMPPRAEEELDPVTLHNQALMNMDARPTEGFEKLQFLLQQNPFPPETFGNLLLLYCKYEYFDLAADVLAENAHLTYKFLTPYLYDFLDALITCQTAPEEAFIKLDGLAGMLTEQLRRLTKQVQEARHNRDDEAIKKAVNEYDETMEKYIPVLMAQAKIYWNLENYPMVEKVFRKSVEFCNDHDVWKLNVAHVLFMQENKYKEAIGFYEPIVKKHYDNILNVSAIVLANLCVSYIMTSQNEEAEELMRKIEKEEEQLSYDDPNRKMYHLCIVNLVIGTLYCAKGNYEFGISRVIKSLEPYNKKLGTDTWYYAKRCFLSLLENMSKHMIVIHDSVIQECVQFLGHCELYGTNIPAVIEQPLEEERMHVGKNTVTDESRQLKALIYEIIGWNK
binds: all assays above

B4: IFT22 (RAS oncogene family-like 5) (protein, UniProt Q9H7X7 1-185)
chain: MLKAKILFVGPCESGKTVLANFLTESSDITEYSPTQGVRILEFENPHVTSNNKGTGCEFELWDCGGDAKFESCWPALMKDAHGVVIVFNADIPSHRKEMEMWYSCFVQQPSLQDTQCMLIAHHKPGSGDDKGSLSLSPPLNKLKLVHSNLEDDPEEIRMEFIKYLKSIINSMSESRDREEMSIMT
binds: all assays above

B5: intraflagellar transport 52 (protein, UniProt Q9Y366 1-437)
chain: MEKELRSTILFNAYKKEIFTTNNGYKSMQKKLRSNWKIQSLKDEITSEKLNGVKLWITAGPREKFTAAEFEILKKYLDTGGDVFVMLGEGGESRFDTNINFLLEEYGIMVNNDAVVRNVYHKYFHPKEALVSSGVLNREISRAAGKAVPGIIDEESSGNNAQALTFVYPFGATLSVMKPAVAVLSTGSVCFPLNRPILAFYHSKNQGGKLAVLGSCHMFSDQYLDKEENSKIMDVVFQWLTTGDIHLNQIDAEDPEISDYMMLPYTATLSKRNRECLQESDEIPRDFTTLFDLSIFQLDTTSFHSVIEAHEQLNVKHEPLQLIQPQFETPLPTLQPAVFPPSFRELPPPPLELFDLDETFSSEKARLAQITNKCTEEDLEFYVRKCGDILGVTSKLPKDQQDAKHILEHVFFQVVEFKKLNQEHDIDTSETAFQNNF
binds: all assays above

B6: intraflagellar transport 46 (protein, UniProt Q9NQC8 1-304)
chain: MADNSSDECEEENNKEKKKTSQLTPQRGFSENEDDDDDDDDSSETDSDSDDDDEEHGAPLEGAYDPADYEHLPVSAEIKELFQYISRYTPQLIDLDHKLKPFIPDFIPAVGDIDAFLKVPRPDGKPDNLGLLVLDEPSTKQSDPTVLSLWLTENSKQHNITQHMKVKSLEDAEKNPKAIDTWIESISELHRSKPPATVHYTRPMPDIDTLMQEWSPEFEELLGKVSLPTAEIDCSLAEYIDMICAILDIPVYKSRIQSLHLLFSLYSEFKNSQHFKALAEGKKAFTPSSNSTSQAGDMETLTFS
binds: all assays above

B7: intraflagellar transport 25 (protein, UniProt Q9Y547 1-144)
chain: MRKIDLCLSSEGSEVILATSSDEKHPPENIIDGNPETFWTTTGMFPQEFIICFHKHVRIERLVIQSYFVQTLKIEKSTSKEPVDFEQWIEKDLVHTEGQLQNEEIVAHDGSATYLRFIIVSAFDHFASVHSVSAEGTVVSNLSS
binds: all assays above

B8: intraflagellar transport 81 (protein, UniProt Q8WYA0 1-676)
chain: MSDQIKFIMDSLNKEPFRKNYNLITFDSLEPMQLLQVLSDVLAEIDPKQLVDIREEMPEQTAKRMLSLLGILKYKPSGNATDMSTFRQGLVIGSKPVIYPVLHWLLQRTNELKKRAYLARFLIKLEVPSEFLQDETVADTNKQYEELMEAFKTLHKEYEQLKISGFSTAEIRKDISAMEEEKDQLIKRVEHLKKRVETAQNHQWMLKIARQLRVEKEREEYLAQQKQEQKNQLFHAVQRLQRVQNQLKSMRQAAADAKPESLMKRLEEEIKFNLYMVTEKFPKELENKKKELHFLQKVVSEPAMGHSDLLELESKINEINTEINQLIEKKMMRNEPIEGKLSLYRQQASIISRKKEAKAEELQEAKEKLASLEREASVKRNQTREFDGTEVLKGDEFKRYVNKLRSKSTVFKKKHQIIAELKAEFGLLQRTEELLKQRHENIQQQLQTMEEKKGISGYSYTQEELERVSALKSEVDEMKGRTLDDMSEMVKKLYSLVSEKKSALASVIKELRQLRQKYQELTQECDEKKSQYDSCAAGLESNRSKLEQEVRRLREECLQEESRYHYTNCMIKNLEVQLRRATDEMKAYISSDQQEKRKAIREQYTKNTAEQENLGKKLREKQKVIRESHGPNMKQAKMWRDLEQLMECKKQCFLKQQSQTSIGQVIQEGGEDRLIL
binds: all assays above

B9: HEAT repeat containing 3 (protein, UniProt Q7Z4Q2 1-680)
chain: MGKSRTKRFKRPQFSPTGDCQAEAAAAANGTGGEEDDGPAAELLEKLQHPSAEVRECACAGLARLVQQRPALPGLARRDAVRRLGPLLLDPSLAVRETAAGALRNLSACGGFEVCDDMVTKDIMTPLVALLKECSAGLDSNEMSLQEKKDQNRNSIENIANETVNVLWNICECSSRAVSIFNKEGCLEIVLKYLSRFPTNVDLAISVAYCLQTVTEDNPELLKSFSATALNMLESALLSPVSSMESLLLKTLVAGTIWNLKDIIPCKSQAEIINALLKILSEVLGMDAGEMVIQMKEAETQRLKTAAEAEEILENTNGDDLIEDDEMEGISHKRRVRRKTFVSDLLPPTDKELRETIALLTAQQTALEIIVNMCCNEDPSDDEWEELSSSDESDAFMENSFSECGGQLFSPLCLSHEVHTALTNYLIPKKIFEKTAFPNSIAVDLCSRNPTWKPLIRKMNTIQCRALFCLQSLVSLLDVEHLGGAAALQTLAQHLSQLLFSQPDFAKHVDFLEAISSALRALLQTMASKNISQCMTPDQLMTLCKAGIHSSNVGVRVNVVSILGITGSVLAKEDGTLETLKNIGCFLLEVTTKDPSLVVAGEALDALFDVFADGKEAERASIQIKLLSALKEFQPVFKMKIRKEGRGNYSTDQLCVLDNVKMNLRRFIAYQETVEKRLTS
binds: [1] | [4]

B10: serum amyloid A-like 1 (protein, UniProt Q96ER3 1-474)
chain: MDRNPSPPPPGRDKEEEEEVAGGDCIGSTVYSKHWLFGVLSGLIQIVSPENTKSSSDDEEQLTELDEEMENEICRVWDMSMDEDVALFLQEFNAPDIFMGVLAKSKCPRLREICVGILGNMACFQEICVSISSDKNLGQVLLHCLYDSDPPTLLETSRLLLTCLSQAEVASVWVERIQEHPAIYDSICFIMSSSTNVDLLVKVGEVVDKLFDLDEKLMLEWVRNGAAQPLDQPQEESEEQPVFRLVPCILEAAKQVRSENPEWLDVYMHILQLLTTVDDGIQAIVHCPDTGKDIWNLLFDLVCHEFCQSDDPPIILQEQKTVLASVFSVLSAIYASQTEQEYLKIEKVDLPLIDSLIRVLQNMEQCQKKPENSAESNTEETKRTDLTQDDFHLKILKDILCEFLSNIFQALTKETVAQGVKEGQLSKQKCSSAFQNLLPFYSPVVEDFIKILREVDKALADDLEKNFPSLKVQT
binds: [1] | [4]

No constants are given. Whether binding was seen depends on the method and setting. In cells and extracts the contact can be indirect. Here binding means that the protein was enriched with, or labelled near, the bait; the list need not be complete. Sequences can lack the tags named with a protein.
